This note sets out measurements from article PMC10353047, “Guianensin, a Simulium guianense salivary protein, has broad anti-hemostatic and anti-inflammatory properties” (Frontiers in Immunology, 2023).

Results are given in words; binding and its absence hold for the method and conditions named. Binding can be weak; no strength is given.

In experiment [1] the target is T1, Guianensin (Simulium guianense) (UniProt F5GTK6).
T1 sequence: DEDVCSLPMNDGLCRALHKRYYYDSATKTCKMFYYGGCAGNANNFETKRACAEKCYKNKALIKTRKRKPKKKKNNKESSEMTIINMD
Put plainly: SPR; Biacore T200; Guianensin immobilised at 1250 RU on a CM5 chip by amine coupling; binding analysis with all analytes at a single concentration of 100 nM; both purified.

Experiment [2] deals with T1, Guianensin (Simulium guianense). Put plainly: SPR; Biacore T200; Guianensin immobilised at 1250 RU on a CM5 chip by amine coupling; kinetic series of the analyte (500 nM starting concentration and six serial dilutions); contact 180 sec, 30 µl/min, dissociation 600 sec; global 1:1 model; both purified.

For Factor X, the binding entry in experiment [1] is on record as “no binding (tested: 100 nM)”. As to “Gla-domainless factor Xa (human) (domain or fragment)”, the binding entry in experiment [1] is given as “binds”. On to Kallikrein (enzyme), for which the binding result in experiment [1] and in experiment [2] was “binds” throughout. Take Plasmin (enzyme): the binding entry in experiment [1] and in experiment [2] was “binds” throughout.

bovine factor Xa (enzyme): the binding entry in experiment [1] is “binds”. human β-factor Xa (enzyme): in experiment [1], the binding result is listed as “binds”. In the case of mouse factor Xa (enzyme), the binding entry in experiment [1] is on record as “binds”.
